Source: PubChem BioAssay AID743121 (NCATS, 2013)
The deposit covers about 26,000 reagents; shown is an unselected part. 167 of them (0.63%) count as active. 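Calls are per gene from RSA p-values that are not deposited; an individual active-marked siRNA can sensitise only weakly.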 Entries without a mark were called inactive. The numbers tell different reagents against one gene apart. Not all columns of the deposit are shown. No sequences are given here.

- Screen: 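Partners whose loss is lethal together with topoisomerase I blockade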 (primary screen)
- System: MDA-MB-231 cells, a human breast cancer line
- Knock-down reagent: single siRNA against human genes, 20 nM siRNA (0.8 pmol per well)
- Time to read-out: 120 h (drug added 48 h after transfection, read 72 h later)
- Treatment: camptothecin 20 nM (about EC30) for 72 h; vehicle 0.1% DMSO in parallel plates
- Detection: 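CellTiter-Glo ATP signal, scaled to control siRNA as percent viability; sensitisation given as log2 of untreated divided by camptothecin-treated viability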
- Direction: log2 vehicle/camptothecin viability: higher = stronger sensitisation to camptothecin; viability with camptothecin: higher = more viable cells
- Rule for the call: 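Active genes have an RSA gene-level p-value below 0.001, computed from the ratios of their separate siRNAs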

gene knocked down | reagent | log2 vehicle/camptothecin viability | viability with camptothecin (% of control)
RDH10 | 1 | 0.0397 | 94.9
RDH10 | 2 | -0.241 | 122
RDH10 | 3 | -0.0837 | 73
RDH10 | 4 | -0.0633 | 109
TRIM47 | 1 | -0.283 | 109
TRIM47 | 2 | -0.0963 | 50.3
TRIM47 | 3 | -0.49 | 67.5
TRIM47 | 4 | 0.0535 | 69.5
IFNA2 | 1 | -0.435 | 82.1
IFNA2 | 2 | -0.329 | 66.1
IFNA2 | 3 | 0.0691 | 78.6
IFNA2 | 4 | 0.723 | 18.8
ALPK3 | 1 | -0.527 | 120
ALPK3 | 2 | -0.442 | 81.9
ALPK3 | 3 | 0.154 | 77.1
ALPK3 | 4 | -0.547 | 90.9
SORCS3 | 1 | -0.389 | 92.2
SORCS3 | 2 | -0.49 | 54.7
SORCS3 | 3 | -0.11 | 60.6
SORCS3 | 4 | -0.499 | 46.1
EFNA5 | 1 | -0.18 | 43
EFNA5 | 2 | -0.391 | 84.8
EFNA5 | 3 | 0.0161 | 90.4
EFNA5 | 4 | 0.21 | 82.2
PIM1 | 1 | -0.363 | 63.3
PIM1 | 2 | -0.279 | 111
PIM1 | 3 | -0.415 | 94.1
PIM1 | 4 | -0.559 | 81.2
CDK5 | 1 | -0.519 | 98.3
CDK5 | 2 | -0.298 | 39.7
CDK5 | 3 | -0.578 | 58.7
CDK5 | 4 | -0.68 | 99.4
SLC7A1 | 1 | -0.155 | 61.8
SLC7A1 | 2 | -0.0744 | 9.68
SLC7A1 | 3 | -0.423 | 78.5
SLC7A1 | 4 | -0.0684 | 113

Already shown: 9 of the entries above.
gene knocked down | reagent | log2 vehicle/camptothecin viability | viability with camptothecin (% of control)
IFNA2 | 3 | 0.0691 | 78.6
IFNA2 | 4 | 0.723 | 18.8
ALPK3 | 1 | -0.527 | 120
ALPK3 | 2 | -0.442 | 81.9
ALPK3 | 3 | 0.154 | 77.1
ALPK3 | 4 | -0.547 | 90.9
SORCS3 | 1 | -0.389 | 92.2
SORCS3 | 2 | -0.49 | 54.7
SORCS3 | 3 | -0.11 | 60.6

The results go on.
gene knocked down | reagent | log2 vehicle/camptothecin viability | viability with camptothecin (% of control)
GJA1 | 1 | -0.168 | 106
GJA1 | 2 | 0.158 | 66.4
GJA1 | 3 | 0.32 | 55.3
UBE2C | 1 | 0.0153 | 100
UBE2C | 2 | -0.295 | 122
UBE2C | 3 | 0.275 | 35.5
UBE2C | 4 | 0.231 | 60.1
UBE2C | 5 | 0.122 | 62.8
UBE2C | 6 | -0.26 | 121
UBE2C | 7 | -0.0716 | 106
UBE2C | 8 | 0.187 | 75.4
UBE2C | 9 | -0.211 | 55.8
UBE2C | 10 | -0.00619 | 82.8
UBE2C | 11 | 0.113 | 93.6
UBE2C | 12 | -0.213 | 72.4
CAPN5 | 1 | -0.206 | 47.2
CAPN5 | 2 | -0.346 | 62.7
CAPN5 | 3 | 0.0981 | 96.5
CAPN5 | 4 | 0.366 | 59.4
NSD1 | 1 | 0.134 | 87
NSD1 | 2 | -0.0542 | 91.4
NSD1 | 3 | -0.365 | 69.4
NSD1 | 4 | -0.502 | 83.4
ESR2 | 1 | -0.165 | 102
ESR2 | 2 | -0.157 | 91.6
ESR2 | 3 | -0.26 | 58
ESR2 | 4 | -0.242 | 81
TAPBP | 1 | -0.0789 | 123
TAPBP | 2 | -0.129 | 95.8
TAPBP | 3 | -1.43 | 53.9
TAPBP | 4 | -0.29 | 84.5
TAPBP | 5 | -0.0526 | 38.6
TAPBP | 6 | 0.0297 | 95.1
TAPBP | 7 | -0.438 | 58.6
TAPBP | 8 | 1.4 | 4.21
